According to publication PMC4519132:
Results are given in words; binding and its absence hold for the method and conditions named. For some assays here: Binding calls can cover weak binding; strength is not graded here.

Key:
[1] = biological target: EcR-B1 AF1 domain (EcR-AF1), two-hybrid bait (Drosophila); experiment: two-hybrid; EcR/USP fragments in pGBKT7 (bait), Drosophila Med14/CDK8 in pGADT7 (prey), in yeast cells; the ligand 20E not present
[2] = biological target: EcR-B1 AF2 domain (EcR-AF2), two-hybrid bait (Drosophila); experiment: as above

B1: Med14 (159-320AA), fragment that contains the LXXLL motif, two-hybrid prey (domain or fragment, UniProt Q9W0P8 159-320)
chain: IRERIVPADAITPAEKRQTLLRLNQVIQHRLVTGKLLPQMREFRIRNGRVTFEVKHEFSVSLTVMGDNPTVPWRLLDIDVLVEDKETGDGKSLVHPLQVNYIHQLIQARLVENPNALSEVYNCLHYFCQSLQLEVLYTQTLRLNYERLDDNNITVEEYVPGV
[1]
  binding: binds
[2]
  binding: no binding
